Where “and” joins values, the source holds several entries; their conditions need not be identical. Identical values can stand only once.
Experiment: Carbon monoxide binding, FTIR CO stretching frequency
Assay type: physicochemical
Conditions: for CO stretching frequency νCO: Hemin 100 μM, Peptide 1 mM
Protocol: Carbon Monoxide Binding. The heme ferrous state was obtained through chemical reduction by add-ing 5 μL of a concentrated sodium dithionite (Sigma-Aldrich) solution (100 mg/mL) into a 1000 μM peptide/100 μM hemin solution (300 μL) in an eppendorf tube. All samples were equilibrated and han-dled in an inert, nitrogen atmosphere (Plas Labs Inc. 830 Series Compact Glove Box). Carbon monoxide (99.99%, Airgas) was added directly through the solution in the eppendorf tube for 30 seconds. 10 μL of the solution was dropcast onto a CaF2 plate where a CO(g) was gently blown over the droplet resulting in a thin film of the PAHeme material. The samples were than analyzed by FTIR spectroscopy (Thermo Scientific, Nicolet 6700 FT-IR spectrophotometer). The samples were stable against oxidation during the course of the experiments.

[1] = pH=7 (micelles; AAHeme forms fibers), ferrous heme

| Substance | CO stretching frequency νCO (fibers, pH=10.5, ferrous heme) | CO stretching frequency νCO [1] | ΔνCO, change from micelles to fibers (micelles vs fibers) |
| --- | --- | --- | --- |
| c16-AAL3K3-CO2H (AALLLKKK; N-terminal palmitoyl; heme) [AAHeme, control peptide amphiphile without heme coordination site; XXHeme denotes the holo state (coordinated heme)] | 1949 cm⁻¹ | 1951 cm⁻¹ and 1970 cm⁻¹ | – |
| c16-AHL3K3-CO2H (AHLLLKKK; N-terminal palmitoyl; heme) [AHHeme, XXHeme denotes the holo state] | 1970 cm⁻¹ | 1967 cm⁻¹ | – |
| c16-HHL3K3-CO2H (HHLLLKKK; N-terminal palmitoyl; heme) [HHHeme, XXHeme denotes the holo state] | 1961 cm⁻¹ | 1963 cm⁻¹ | – |
| c16-MHL3K3-CO2H (MHLLLKKK; N-terminal palmitoyl; heme) [MHHeme, XXHeme denotes the holo state] | 1957 cm⁻¹ | 1969 cm⁻¹ | 12 cm⁻¹ |
